Data taken from US20170052184A1.
Results are given in words; binding and its absence hold for the method and conditions named. A result given as binding can be weak or reduced; the word gives no strength.

Target: HCV p21 core protein (mature core) (Hepatitis C virus)
Assay: Western blot screening of hybridoma supernatants and ascites

B1: Neo4 monoclonal antibody (antibody, V domains shown)
VH: QIQLKESGPAVIKPSQSLSLTCIVSGFSITSSVYCWQWIRQPPGKGLEWMGRICYDGSVDYSPSITSRGTISRDTSLNKVFFQLSSVTNEDTAMYYCSRENHIDYYDTTYPSFDVWGAGTTVTVSS
VL: DIVLTQSPASLIVSLGQRATISCRASKSVNEYGYTYMHWYQQKPGLPPKLLIYLASNLDSGVPARFSGSGSGTDFTLNIHPVEEEDAATYYCQHSRELPYTFGGGTKLEIKR
binding: binds
